This assay deals with T1, major royal jelly protein 1 (Apis mellifera L.) (UniProt O18330).
T1 sequence: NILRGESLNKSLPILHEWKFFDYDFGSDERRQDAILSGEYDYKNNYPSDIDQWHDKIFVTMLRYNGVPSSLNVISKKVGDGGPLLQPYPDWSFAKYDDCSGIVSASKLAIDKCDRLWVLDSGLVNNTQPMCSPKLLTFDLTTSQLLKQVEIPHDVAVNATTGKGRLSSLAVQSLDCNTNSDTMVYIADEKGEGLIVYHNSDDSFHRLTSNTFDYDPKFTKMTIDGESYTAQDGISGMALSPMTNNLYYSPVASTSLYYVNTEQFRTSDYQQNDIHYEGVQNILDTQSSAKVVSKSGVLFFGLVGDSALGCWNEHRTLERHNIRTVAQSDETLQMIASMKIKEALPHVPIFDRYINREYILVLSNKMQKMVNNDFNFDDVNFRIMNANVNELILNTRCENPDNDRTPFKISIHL
Description: SEC; native complex (apisin) from royal jelly, precipitated at pH 4.8 and run on Sephacryl S-300HR in 0.1 M phosphate buffer with 0.3 M NaCl, pH 7.2; single peak on size-exclusion HPLC; components of the peak identified by SDS-PAGE, LC-MS of digests and intact mass. Background: SEC sorts molecules by how far they enter the pores of the column.

This note sets out measurements from PMC5045987.

Results are given in words; binding and its absence hold for the method and conditions named. Some results given as binding are weak or reduced against the parent protein; the word gives no strength.

B1: apisimin (protein, UniProt Q8ISL8 25-78)
chain: KTSISVKGESNVDVVSQINSLVSSIVSGANVSAVLLAQTLVNILQILIDANVFA
Consider B1, for which the binding result is reported as “binds”.
